This is an account of results in publication PMC5042399.

By UniProt entry, the sequences of proteins in these tests, tags left out. Residues count along the entry.
UniProt P11387: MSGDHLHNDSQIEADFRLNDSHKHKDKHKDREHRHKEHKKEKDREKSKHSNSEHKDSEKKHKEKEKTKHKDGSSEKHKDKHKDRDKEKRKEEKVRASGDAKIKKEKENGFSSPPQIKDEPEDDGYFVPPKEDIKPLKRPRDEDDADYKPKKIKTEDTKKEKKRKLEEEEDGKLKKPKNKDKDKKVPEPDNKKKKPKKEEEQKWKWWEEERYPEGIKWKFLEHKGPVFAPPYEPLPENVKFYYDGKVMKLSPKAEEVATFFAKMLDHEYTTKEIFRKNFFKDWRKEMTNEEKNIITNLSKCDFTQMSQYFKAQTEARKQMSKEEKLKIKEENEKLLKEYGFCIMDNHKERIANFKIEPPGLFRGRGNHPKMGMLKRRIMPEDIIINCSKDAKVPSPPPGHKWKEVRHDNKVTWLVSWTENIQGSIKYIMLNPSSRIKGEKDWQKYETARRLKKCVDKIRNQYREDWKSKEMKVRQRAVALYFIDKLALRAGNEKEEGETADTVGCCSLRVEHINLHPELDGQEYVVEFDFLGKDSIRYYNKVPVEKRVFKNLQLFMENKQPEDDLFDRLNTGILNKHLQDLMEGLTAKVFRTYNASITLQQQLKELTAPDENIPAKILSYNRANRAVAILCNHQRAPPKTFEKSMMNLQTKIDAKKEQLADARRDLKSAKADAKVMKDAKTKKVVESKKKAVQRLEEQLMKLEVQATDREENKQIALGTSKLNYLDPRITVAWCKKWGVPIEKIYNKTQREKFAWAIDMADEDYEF
BLM C-terminus (amino acids 997–1417) (P54132, residues 997-1417): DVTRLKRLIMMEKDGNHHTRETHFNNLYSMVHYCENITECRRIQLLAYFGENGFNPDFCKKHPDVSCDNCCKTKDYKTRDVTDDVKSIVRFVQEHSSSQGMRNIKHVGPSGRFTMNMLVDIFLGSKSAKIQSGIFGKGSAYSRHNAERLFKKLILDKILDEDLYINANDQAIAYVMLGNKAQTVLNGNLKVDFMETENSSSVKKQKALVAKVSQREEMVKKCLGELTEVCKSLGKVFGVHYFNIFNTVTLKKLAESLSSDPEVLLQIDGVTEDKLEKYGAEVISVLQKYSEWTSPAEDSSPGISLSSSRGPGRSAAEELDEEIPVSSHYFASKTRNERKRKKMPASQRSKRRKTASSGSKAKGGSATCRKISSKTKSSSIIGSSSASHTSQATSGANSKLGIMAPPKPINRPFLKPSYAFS
BLM fragment 997–1349 (P54132, residues 997-1349): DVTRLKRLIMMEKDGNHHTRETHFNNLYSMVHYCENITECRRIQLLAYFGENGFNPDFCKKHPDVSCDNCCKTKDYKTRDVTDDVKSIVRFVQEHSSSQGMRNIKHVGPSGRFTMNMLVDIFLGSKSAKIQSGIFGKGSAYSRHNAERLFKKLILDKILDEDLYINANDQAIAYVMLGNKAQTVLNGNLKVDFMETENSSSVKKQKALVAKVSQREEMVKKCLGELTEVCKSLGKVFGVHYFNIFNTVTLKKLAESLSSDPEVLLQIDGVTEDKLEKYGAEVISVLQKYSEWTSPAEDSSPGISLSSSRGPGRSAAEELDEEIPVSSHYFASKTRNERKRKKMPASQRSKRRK
BLM fragment 1120–1417 (P54132, residues 1120-1417): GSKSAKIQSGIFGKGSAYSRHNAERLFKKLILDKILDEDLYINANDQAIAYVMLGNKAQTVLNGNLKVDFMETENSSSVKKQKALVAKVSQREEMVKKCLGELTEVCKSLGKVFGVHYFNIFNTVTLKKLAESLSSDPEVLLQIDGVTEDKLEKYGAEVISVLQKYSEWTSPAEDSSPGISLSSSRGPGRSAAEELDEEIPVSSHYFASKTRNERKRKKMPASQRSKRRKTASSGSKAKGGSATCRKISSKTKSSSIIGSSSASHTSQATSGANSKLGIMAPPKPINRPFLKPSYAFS

This test concerns the target DNA topoisomerase I (TOP1), full-length recombinant (UniProt P11387). Nature of the test: co-IP; 35S-methionine-labelled IVTT BLM fragments incubated with purified full-length recombinant TOP1, then α-TOP1 or isotype control antibody, 4 °C, 3 h; 10 mM Tris-HCl pH 7.5, 150 mM NaCl, 1 mM EDTA, 10% glycerol, 1 mM DTT, 0.1% Tween-20, 0.1 mg/ml BSA; precipitated with Dynabeads Protein G; phosphor imaging, % relative IP against 997–1417; only the target purified.

No constants are given. Whether binding was seen depends on the method and setting. In cells and extracts the contact can be indirect. Some entries that bind do so weakly or less than the wild type.

In the case of “BLM C-terminus (amino acids 997–1417) (from UniProt P54132 997-1417) (domain or fragment)”, the binding entry is “binds”. The value for “BLM fragment 997–1349 (from UniProt P54132 997-1349) (domain or fragment)” was “binds”; that for “BLM fragment 1120–1417 (from UniProt P54132 1120-1417) (domain or fragment)” was “binds”.
